Test: electroless gold plating: reduction of gold salt solution on palladium chloride activated nickel plate
Protocol: The amine boranes of this invention are useful as reducing agents in aqueous solutions. For example, solutions of gold salts are reduced by the water soluble amine boranes to plate gold on a catalytically active surface contacted with the solution, as is more fully described in the above referenced co pending application. To illustrate, the pH of one hundred ml of a 3.0 g/l solution of KAuCl4 was raised to 12.5 by the addition of NaOH. In a separate beaker, the pH of 100 ml of a 2.00g/l solution of CH3 OCH2 CH2 N(CH3)2 :BH3 was also raised to 12.5 by the addtion of NaOH. […] A palladium chloride activated substrate of nickel plate was immersed in the stirred bath for one hour at room temperature.

SMILES: [BH3-][N+](C)(C)CCOC [Example 4]
- weight increase (gold plating) (100 ml 3.0 g/l KAuCl4 + 100 ml 2.00 g/l amine borane, pH 12.5, one hour, room temperature): 0.34 mg/cm^2
- onset of plating (stirred bath, pH 12.5, room temperature): Plating was noted immediately

From patent publication US4080381A, “Water soluble tertiary amine boranes” (Mine Safety Appliances Company, priority 1976, dated 1978)
